# Test system: CEM cells HIV-1 protection, formazan growth assay
# Assay: NCI AIDS Antiviral Assay
# Conditions: for IC50: measured here: growth of uninfected CEM cells
# Summary of the method: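 Human CEM cells, uninfected and HIV-1-infected, received five drug concentrations, and growth was read by soluble formazan assay. Compounds giving at least 50% protection were retested; reproducible 100% protection defined confirmed active.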
SMILES,EC50 [nM],IC50 [nM]
CCOC(=O)NC1CCc2cc(OC)c(OC)c(OC)c2-c2ccc(OC)c(=O)cc21 (stereo unspecified),> 200,3.31
COc1cc2c(c(OC)c1OC)-c1ccc(SC)c(=O)cc1[C@@H](NC(C)=O)CC2,> 200,0.955
COc1cc2c(c(OC)c1OC)-c1ccc(OC)c(=O)cc1[C@@H](N)CC2,> 200,12.3
